Reference: publication PMC6983718

Amino acid sequences for entries named in this document (tags omitted). A change or cut given only in a name is not applied to a line headed by its entry.
UniProt P23573: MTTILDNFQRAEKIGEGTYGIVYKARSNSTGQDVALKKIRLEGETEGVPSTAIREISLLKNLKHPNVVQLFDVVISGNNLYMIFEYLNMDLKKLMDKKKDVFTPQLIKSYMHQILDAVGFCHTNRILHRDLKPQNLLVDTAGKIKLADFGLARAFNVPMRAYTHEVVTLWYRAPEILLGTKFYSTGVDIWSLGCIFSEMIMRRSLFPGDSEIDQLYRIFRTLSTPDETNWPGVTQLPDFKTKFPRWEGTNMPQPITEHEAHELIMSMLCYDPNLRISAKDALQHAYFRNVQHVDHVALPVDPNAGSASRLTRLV
UniProt P02828: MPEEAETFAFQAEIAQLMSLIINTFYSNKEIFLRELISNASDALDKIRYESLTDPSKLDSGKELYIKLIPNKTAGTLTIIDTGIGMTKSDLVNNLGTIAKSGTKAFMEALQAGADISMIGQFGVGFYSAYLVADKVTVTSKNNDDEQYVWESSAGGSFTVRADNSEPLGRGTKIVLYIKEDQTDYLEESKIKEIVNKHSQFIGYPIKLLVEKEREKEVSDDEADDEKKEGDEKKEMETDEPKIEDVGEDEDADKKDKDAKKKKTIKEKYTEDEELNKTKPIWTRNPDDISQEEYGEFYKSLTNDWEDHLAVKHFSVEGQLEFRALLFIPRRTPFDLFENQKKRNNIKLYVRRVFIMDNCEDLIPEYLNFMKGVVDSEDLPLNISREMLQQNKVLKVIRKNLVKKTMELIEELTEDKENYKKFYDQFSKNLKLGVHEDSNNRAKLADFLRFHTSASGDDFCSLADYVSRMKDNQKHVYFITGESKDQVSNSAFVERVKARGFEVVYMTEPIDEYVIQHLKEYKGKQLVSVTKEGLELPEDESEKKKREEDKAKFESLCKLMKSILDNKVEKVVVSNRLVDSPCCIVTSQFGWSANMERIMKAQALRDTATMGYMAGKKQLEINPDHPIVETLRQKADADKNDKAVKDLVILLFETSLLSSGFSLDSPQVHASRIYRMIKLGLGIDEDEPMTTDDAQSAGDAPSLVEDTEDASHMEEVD
UniProt Q9VRQ2: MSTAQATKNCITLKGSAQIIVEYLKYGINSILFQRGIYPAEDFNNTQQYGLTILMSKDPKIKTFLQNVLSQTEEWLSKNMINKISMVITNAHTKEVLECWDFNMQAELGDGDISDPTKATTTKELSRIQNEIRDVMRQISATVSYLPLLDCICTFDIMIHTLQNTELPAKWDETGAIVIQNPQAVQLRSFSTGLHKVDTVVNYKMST
UniProt Q8I8U7: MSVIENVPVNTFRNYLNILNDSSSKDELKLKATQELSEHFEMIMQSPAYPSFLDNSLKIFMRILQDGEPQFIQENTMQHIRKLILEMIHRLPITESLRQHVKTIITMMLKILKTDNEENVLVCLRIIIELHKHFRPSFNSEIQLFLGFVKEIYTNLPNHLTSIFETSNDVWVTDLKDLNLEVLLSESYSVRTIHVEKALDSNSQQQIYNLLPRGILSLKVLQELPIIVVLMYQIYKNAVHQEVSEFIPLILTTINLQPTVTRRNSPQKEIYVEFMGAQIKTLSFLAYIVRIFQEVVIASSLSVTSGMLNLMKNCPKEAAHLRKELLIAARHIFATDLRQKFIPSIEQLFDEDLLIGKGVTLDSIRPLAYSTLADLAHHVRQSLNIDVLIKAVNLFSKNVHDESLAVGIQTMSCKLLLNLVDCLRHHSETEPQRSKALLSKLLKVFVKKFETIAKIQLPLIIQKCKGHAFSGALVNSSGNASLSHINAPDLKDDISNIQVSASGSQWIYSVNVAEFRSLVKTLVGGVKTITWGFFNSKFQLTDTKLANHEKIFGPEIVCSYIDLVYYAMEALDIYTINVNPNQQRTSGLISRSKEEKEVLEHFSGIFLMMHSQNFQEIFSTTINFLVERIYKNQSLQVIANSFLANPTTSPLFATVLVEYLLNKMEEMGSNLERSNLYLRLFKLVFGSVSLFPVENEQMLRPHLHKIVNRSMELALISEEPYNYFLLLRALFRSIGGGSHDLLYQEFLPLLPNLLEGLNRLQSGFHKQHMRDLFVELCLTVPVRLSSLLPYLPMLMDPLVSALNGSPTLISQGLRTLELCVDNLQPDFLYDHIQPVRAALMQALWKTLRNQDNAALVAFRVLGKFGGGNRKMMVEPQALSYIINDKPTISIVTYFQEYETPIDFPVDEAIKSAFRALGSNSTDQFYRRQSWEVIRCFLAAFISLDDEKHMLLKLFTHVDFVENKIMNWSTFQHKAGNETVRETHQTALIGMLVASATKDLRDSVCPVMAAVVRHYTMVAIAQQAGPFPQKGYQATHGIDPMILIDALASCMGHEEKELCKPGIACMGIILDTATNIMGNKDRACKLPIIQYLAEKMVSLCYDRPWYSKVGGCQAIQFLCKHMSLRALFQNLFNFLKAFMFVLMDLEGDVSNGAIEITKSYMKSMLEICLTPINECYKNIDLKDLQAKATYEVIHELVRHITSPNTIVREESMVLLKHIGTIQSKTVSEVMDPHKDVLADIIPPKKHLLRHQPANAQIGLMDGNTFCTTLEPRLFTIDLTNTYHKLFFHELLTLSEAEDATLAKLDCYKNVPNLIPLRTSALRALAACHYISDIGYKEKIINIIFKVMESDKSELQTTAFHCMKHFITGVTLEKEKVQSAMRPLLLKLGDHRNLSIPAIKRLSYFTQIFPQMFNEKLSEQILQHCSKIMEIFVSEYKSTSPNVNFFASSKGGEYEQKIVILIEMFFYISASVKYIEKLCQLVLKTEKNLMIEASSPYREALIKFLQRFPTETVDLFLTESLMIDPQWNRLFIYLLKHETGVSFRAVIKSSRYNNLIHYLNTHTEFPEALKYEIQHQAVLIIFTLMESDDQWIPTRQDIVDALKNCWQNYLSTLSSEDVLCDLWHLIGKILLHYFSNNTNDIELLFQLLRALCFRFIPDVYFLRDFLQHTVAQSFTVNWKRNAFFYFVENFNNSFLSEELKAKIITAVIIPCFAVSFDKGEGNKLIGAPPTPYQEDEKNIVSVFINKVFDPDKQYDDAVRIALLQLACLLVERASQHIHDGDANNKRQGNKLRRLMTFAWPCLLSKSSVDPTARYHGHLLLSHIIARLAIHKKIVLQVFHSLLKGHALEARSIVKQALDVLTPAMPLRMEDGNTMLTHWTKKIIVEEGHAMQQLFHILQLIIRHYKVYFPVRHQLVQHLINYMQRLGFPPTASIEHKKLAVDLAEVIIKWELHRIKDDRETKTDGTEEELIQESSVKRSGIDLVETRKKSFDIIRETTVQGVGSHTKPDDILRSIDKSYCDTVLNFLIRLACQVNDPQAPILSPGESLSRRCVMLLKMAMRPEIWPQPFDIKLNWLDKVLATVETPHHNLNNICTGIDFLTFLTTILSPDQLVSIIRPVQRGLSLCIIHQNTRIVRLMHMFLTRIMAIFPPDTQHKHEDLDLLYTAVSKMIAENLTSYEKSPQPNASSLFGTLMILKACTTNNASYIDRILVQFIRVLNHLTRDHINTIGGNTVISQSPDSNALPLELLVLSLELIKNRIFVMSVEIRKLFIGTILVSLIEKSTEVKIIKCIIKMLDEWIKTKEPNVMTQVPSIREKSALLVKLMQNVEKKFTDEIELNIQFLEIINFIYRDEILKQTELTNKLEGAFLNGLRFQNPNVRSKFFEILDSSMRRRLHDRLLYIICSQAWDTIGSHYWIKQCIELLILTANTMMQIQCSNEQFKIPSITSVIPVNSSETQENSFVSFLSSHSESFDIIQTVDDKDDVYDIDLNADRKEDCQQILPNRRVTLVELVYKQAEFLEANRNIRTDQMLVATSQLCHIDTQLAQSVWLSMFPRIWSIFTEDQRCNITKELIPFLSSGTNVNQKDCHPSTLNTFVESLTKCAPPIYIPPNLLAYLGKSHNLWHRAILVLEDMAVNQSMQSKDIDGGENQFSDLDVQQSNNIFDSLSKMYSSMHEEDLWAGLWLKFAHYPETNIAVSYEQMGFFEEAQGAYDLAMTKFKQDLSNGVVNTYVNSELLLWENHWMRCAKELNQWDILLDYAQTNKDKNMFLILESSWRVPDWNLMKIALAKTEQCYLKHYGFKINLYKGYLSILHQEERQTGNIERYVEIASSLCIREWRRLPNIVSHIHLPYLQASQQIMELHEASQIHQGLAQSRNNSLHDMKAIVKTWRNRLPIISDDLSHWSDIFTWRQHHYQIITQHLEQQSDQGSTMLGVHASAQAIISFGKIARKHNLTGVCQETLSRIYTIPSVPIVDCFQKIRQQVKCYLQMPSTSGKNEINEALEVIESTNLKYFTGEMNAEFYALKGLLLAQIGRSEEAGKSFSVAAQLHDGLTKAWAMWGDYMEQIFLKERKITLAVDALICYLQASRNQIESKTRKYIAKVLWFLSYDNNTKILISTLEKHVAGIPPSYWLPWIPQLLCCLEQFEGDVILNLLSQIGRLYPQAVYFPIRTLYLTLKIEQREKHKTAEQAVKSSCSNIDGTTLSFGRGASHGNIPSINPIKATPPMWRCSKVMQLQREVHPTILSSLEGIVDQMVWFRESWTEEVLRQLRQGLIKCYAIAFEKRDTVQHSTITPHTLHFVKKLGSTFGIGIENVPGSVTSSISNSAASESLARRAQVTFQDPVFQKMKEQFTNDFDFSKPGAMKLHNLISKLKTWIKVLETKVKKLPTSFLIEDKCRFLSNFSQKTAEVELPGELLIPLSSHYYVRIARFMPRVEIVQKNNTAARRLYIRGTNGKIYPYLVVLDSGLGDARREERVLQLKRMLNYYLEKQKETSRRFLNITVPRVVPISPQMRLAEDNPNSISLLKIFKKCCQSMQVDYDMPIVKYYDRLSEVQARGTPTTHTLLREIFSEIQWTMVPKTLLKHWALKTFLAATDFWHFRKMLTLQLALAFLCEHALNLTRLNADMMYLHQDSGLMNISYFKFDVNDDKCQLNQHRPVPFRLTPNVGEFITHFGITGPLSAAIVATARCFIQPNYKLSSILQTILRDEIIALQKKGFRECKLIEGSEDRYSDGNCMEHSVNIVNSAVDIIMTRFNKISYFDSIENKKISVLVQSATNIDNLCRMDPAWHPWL
UniProt Q9VH07: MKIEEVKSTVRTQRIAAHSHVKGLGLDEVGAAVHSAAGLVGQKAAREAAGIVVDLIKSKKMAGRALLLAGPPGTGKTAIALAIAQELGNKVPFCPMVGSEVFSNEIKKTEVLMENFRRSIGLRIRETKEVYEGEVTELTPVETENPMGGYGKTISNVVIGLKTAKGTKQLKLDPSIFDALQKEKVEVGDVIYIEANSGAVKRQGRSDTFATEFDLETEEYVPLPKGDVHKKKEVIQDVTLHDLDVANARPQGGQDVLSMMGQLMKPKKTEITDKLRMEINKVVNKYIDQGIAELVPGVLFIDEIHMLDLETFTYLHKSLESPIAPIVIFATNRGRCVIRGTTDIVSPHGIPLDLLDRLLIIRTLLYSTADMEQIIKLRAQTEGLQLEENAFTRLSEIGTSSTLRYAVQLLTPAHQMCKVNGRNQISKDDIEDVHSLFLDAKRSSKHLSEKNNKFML

T1: Mora–GFP (Drosophila) (UniProt Q9VCC0)
T1 sequence: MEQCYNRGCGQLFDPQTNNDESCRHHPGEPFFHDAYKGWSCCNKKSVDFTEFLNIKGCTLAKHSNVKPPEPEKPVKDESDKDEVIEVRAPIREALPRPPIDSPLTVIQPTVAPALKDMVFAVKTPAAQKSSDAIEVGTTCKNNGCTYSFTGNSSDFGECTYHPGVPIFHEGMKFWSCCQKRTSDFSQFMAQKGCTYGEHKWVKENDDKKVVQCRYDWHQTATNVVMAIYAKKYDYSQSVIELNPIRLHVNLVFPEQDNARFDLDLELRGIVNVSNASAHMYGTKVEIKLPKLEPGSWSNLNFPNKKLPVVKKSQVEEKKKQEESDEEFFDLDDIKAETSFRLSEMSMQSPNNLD

B1: FKBP59 (protein, UniProt Q9VL78 1-439)
chain: MPEGNKIDLSGDGGVLKEILKEGTGTETPHSGCTVSLHYTGRLVDGTEFDSSLSRNEPFEFSLGKGNVIKAFDMGVATMKLGERCFLTCAPNYAYGAAGSPPAIPPDATLIFELEMLGWKGEDLSPNQDGSIDRTILEASDKKRTPSDGAFVKAHISGSFEGRVFEDRDVEFDYGEGKAIGIIDGVEIALEKMNVGETSRIKIQAKYAFGAKGNEEFKIPPNATVEYTVKLVDCGKGLEEWKLSDEERLAEAKVYKEKGTNYFKKENWALAIKMYTKCKNILPTTVHTNEEVKKIKVATHSNIALCHQKSNDHFEAKQECNEVLALDKNNVKALYRRGQCNLTINELEDALEDFQKVIQLEPGNKAAANQVIICKQKLKESKNKEKKLYANMFTKLAANDKETEPPRETDVLSKCGEWSEEDAKREAELTLERDNIIMI
B2: Bdbt (protein, UniProt Q9VDE4 1-286)
chain: MDWYVGTEWEDKNRGLAKKVIGLQFTEMDKPTIISTVEFSVNKKATNLGGRPSKYLVSDESATYPQKHSLEMGTSLTAVDCYLELLLQQFVPGETAACSITTKTGERIEFELKLEKIVKNTQVEKLSAAEIYEVALRLKESGVATFKTFPKFAFDYFVRAAKLLITYKPFDKLTKKTNGINGQAVEELFIQIQTNLAACLLQEKRYEHVIYHTQFVETEESPSEKSIYRRALAYYHLKEFAKAQATIERMPNYEEKREFSKLRDNIAVSWKDSKAHYKEVVQRMFS
B3: NudC (protein, UniProt Q9VVA6 1-332)
chain: MAAEEGKFDNILLAVAEKHHGGVPEFLGTLASFLRRKTDFFTGAKQTEWEKLLLDVFNKESKLAVTENYEKIKAREASQRLKAEKERAERKARKQEIDDNKICDITDEEAAAIIKEEETKKRQQLLDSAGGEPSASNRDGISKPIEKVDDESDKSELGKLMPNAGNGCTLENYTWTQTLEEVELKIPFNLTFGLRARDLVISIGKKSLKVGIKGQTPIIDGELCGEVKTEESVWVLQDSKTVMITLDKINKMNWWSRLVTTDPEISTRKINPESSKLSDLDGETRSMVEKMMYDQRQKELGLPTSEDRKKQDILEKFKQQHPEMDFSKCKFN

Each molecule was assayed against T1, Mora–GFP (Drosophila) (assay: affinity purification with mass spectrometry; clarified extract of 0–3 h embryos expressing Mora–GFP incubated with GFP–TRAP-A beads 2 h at 4°C in C buffer (50 mM HEPES pH 7.4, 50 mM KCl, 1 mM MgCl2, 1 mM EGTA, 0.1% IGEPAL CA-630); hits filtered against a database of non-specific interactors; two experiments).

Molecule | binding
CG16908 (Drosophila (endogenous in embryos)) | binds
Cdk2 (from UniProt P23573 1-314) | binds
Hsp83 (from UniProt P02828 1-717) | binds
Mad2 (from UniProt Q9VRQ2) | binds
Nipped-A (from UniProt Q8I8U7 1-3790) | binds
PPD3 (Drosophila (endogenous in embryos)) | binds
Pontin (from UniProt Q9VH07 1-456) | binds
ProsBeta5 (Drosophila (endogenous in embryos)) | binds
Vap33 (Drosophila (endogenous in embryos)) | binds

Target: T1, Mora–GFP (Drosophila)
Assay: as above
Remark: another data set of the same source

Molecule | binding
B1 | binds
B2 | binds
B3 | binds

Results are given in words; binding and its absence hold for the method and conditions named. In cells and extracts the contact can be indirect. Here binding means that the protein was enriched with, or labelled near, the bait; the list need not be complete. Where a sequence is shown, tags or fusion partners need not be part of it.
